PubChem BioAssay AID1224830 – NIAID | 2016
The whole screen tested about 18,000 reagents; this is a random part of them. In the full data, about 2,900 (16%) are marked active. 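Calls are made per well; low scores hint the gene aids the LPS response, high scores that it dampens it.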 Reagents against one gene are numbered here. Repeated entries: four replicate wells of each siRNA pool.

Purpose: 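Host factors that control LPS-induced TNF expression in human macrophages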 (primary screen)
Cells: human THP-1 monocytic leukaemia cells, TNF dual-luciferase reporter clone, PMA-differentiated to macrophage-like cells
Knock-down reagent: siRNA pool against human genes, 50 nM
Time to read-out: LPS for 4 h, given about 3 days after siRNA transfection
Challenge: bacterial LPS (TLR4 ligand), 10 ng/ml
Detection: 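TNF firefly reporter luminescence divided by renilla, normalised to the plate median, then turned into a robust z-score for each replicate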
Reading the numbers: TNF reporter robust z-score: higher = stronger TNF reporter response to LPS
Call rule: 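Each well counts as active if its z-score is over 2.8 or under -1.5; controls are left without a call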

gene symbol | reagent | TNF reporter robust z-score | Call
CD1B (CD1b molecule) | 1 | -0.35 | inactive
CD1B (CD1b molecule) | 1 | 0.47 | inactive
CD1B (CD1b molecule) | 1 | -0.74 | inactive
CD1B (CD1b molecule) | 1 | -0.45 | inactive
GGA2 | 1 | 0.58 | inactive
GGA2 | 1 | 1.62 | inactive
GGA2 | 1 | 0.28 | inactive
GGA2 | 1 | 1.9 | inactive
CNTNAP1 (contactin associated protein 1) | 1 | 0.24 | inactive
CNTNAP1 (contactin associated protein 1) | 1 | -0.24 | inactive
CNTNAP1 (contactin associated protein 1) | 1 | -0.66 | inactive
CNTNAP1 (contactin associated protein 1) | 1 | -0.01 | inactive
DPP8 (dipeptidyl peptidase 8) | 1 | 0.7 | inactive
DPP8 (dipeptidyl peptidase 8) | 1 | -0.44 | inactive
DPP8 (dipeptidyl peptidase 8) | 1 | -1.21 | inactive
DPP8 (dipeptidyl peptidase 8) | 1 | 0.29 | inactive
SLC12A7 | 1 | 1.04 | inactive
SLC12A7 | 1 | 1.62 | inactive
SLC12A7 | 1 | 0.18 | inactive
SLC12A7 | 1 | 1.59 | inactive
CLEC10A (C-type lectin domain containing 10A) | 1 | -0.49 | inactive
CLEC10A (C-type lectin domain containing 10A) | 1 | -0.88 | inactive
CLEC10A (C-type lectin domain containing 10A) | 1 | -0.71 | inactive
CLEC10A (C-type lectin domain containing 10A) | 1 | -0.12 | inactive
EIF1AD | 1 | 0.58 | inactive
EIF1AD | 1 | 2.81 | active
EIF1AD | 1 | 1.18 | inactive
EIF1AD | 1 | 2.8 | active
MPHOSPH9 (M-phase phosphoprotein 9) | 1 | 0.65 | inactive
MPHOSPH9 (M-phase phosphoprotein 9) | 1 | 1.01 | inactive
MPHOSPH9 (M-phase phosphoprotein 9) | 1 | 0.51 | inactive
MPHOSPH9 (M-phase phosphoprotein 9) | 1 | -0.4 | inactive
SGPL1 (sphingosine-1-phosphate lyase 1) | 1 | -1.18 | inactive
SGPL1 (sphingosine-1-phosphate lyase 1) | 1 | -0.66 | inactive
SGPL1 (sphingosine-1-phosphate lyase 1) | 1 | -1.4 | inactive
SGPL1 (sphingosine-1-phosphate lyase 1) | 1 | -1.04 | inactive
DCDC1 (doublecortin domain containing 1) | 1 | 0.95 | inactive
DCDC1 (doublecortin domain containing 1) | 1 | 1.74 | inactive
DCDC1 (doublecortin domain containing 1) | 1 | 2.29 | inactive
DCDC1 (doublecortin domain containing 1) | 1 | 0.9 | inactive
DCDC1 (doublecortin domain containing 1) | 2 | -0.8 | inactive
DCDC1 (doublecortin domain containing 1) | 2 | 0.29 | inactive
DCDC1 (doublecortin domain containing 1) | 2 | -0.51 | inactive
DCDC1 (doublecortin domain containing 1) | 2 | -1.04 | inactive
YARS2 (tyrosyl-tRNA synthetase 2) | 1 | 0.8 | inactive
YARS2 (tyrosyl-tRNA synthetase 2) | 1 | 0.7 | inactive
YARS2 (tyrosyl-tRNA synthetase 2) | 1 | 0.31 | inactive
YARS2 (tyrosyl-tRNA synthetase 2) | 1 | 0.56 | inactive
